Results deposited as PubChem BioAssay AID504793 (Drosophila RNAi Screening Center, 2011).

- Test: 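Knock-downs allowing continued mitosis even though DNA is damaged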 (primary screen)
- Cell system: Drosophila S2R+ cells
- Reagent: long dsRNA against Drosophila genes, about 0.25 µg dsRNA per well
- Timing: 4 days of dsRNA, then 4 hours of drug before read-out
- Conditions: doxorubicin 0.5 µM for 4 hours to cause double-strand breaks, in cells also given a low, harmless dose of dsRNA against nbs to sensitise the assay
- Measured: 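Mitotic index as the number of phospho-histone H3-positive cells in each well following doxorubicin, given as raw counts without normalisation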
- Direction: mitotic cells: higher = more cells in mitosis, weaker G2 arrest
- Call rule: 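a call needs confirmation in secondary tests, with other dsRNAs and a check of mitotic timing without damage, not just a high primary count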
- Meaning of the calls: active = confirmed in follow-up tests; inactive = not confirmed
The screen tested about 23,000 reagents; this is a random part of those that have a named target and a result. Over the whole deposit, 62 (0.27%) are marked active. 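Calls come from follow-up tests whose scores are not deposited, so confirmed genes may have low counts here; counts are not normalised per plate.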 Raw values vary from plate to plate and are shown uncorrected. Reagents against one gene are numbered here. Names joined by + are all predicted targets of the reagent.

The first 7 records, ahead of the listing:
target gene	reagent	mitotic cells, replicate 1	mitotic cells, replicate 2	activity call
ouib	1	6		inactive
amrt	1	6		inactive
amrt	2	4		inactive
CG10413	1	10		inactive
Rexo5	1	5		inactive
CngB	1	6		inactive
Tbh	1	16		inactive

The list itself, from the start:
target gene	reagent	mitotic cells, replicate 1	mitotic cells, replicate 2	activity call
ouib	1	6		inactive
amrt	1	6		inactive
amrt	2	4		inactive
CG10413	1	10		inactive
Rexo5	1	5		inactive
CngB	1	6		inactive
Tbh	1	16		inactive
Tbh	2	7		inactive
Acsf3	1	11		inactive
SdhB	1	23		inactive
SdhB	2	17		inactive
tacc	1	16		inactive
tacc	2	10		inactive
tacc	3	7		inactive
SLIRP1 + anox	1	9		inactive
dmrt93B	1	5		inactive
dmrt93B	2	7		inactive
Serinc	1	6		inactive
CG42685	1	7	13	inactive
Pgant7	1	6		inactive
CG11695	1	8		inactive
CG11695	2	3		inactive
CG6362	1	8		inactive
CG6362	2	8		inactive
fs(1)h	1	5	15	inactive
fs(1)h	2	12		inactive
CG15056	1	11		inactive
Obp47a	1	4		inactive
Obp47a	2	5		inactive
pcm	1	7		inactive
CG15408	1	3		inactive
wam	1	13		inactive
Swim	1	7		inactive
NHP2	1	4		inactive
NHP2	2	5		inactive
Smurf	1	2		inactive
Smurf	2			inactive
SLC22A	1	6		inactive
SLC22A	2	6		inactive
CG13784	1	6		inactive
Prosbeta7	1	88		inactive
Rich	1	4		inactive
Rich	2	7		inactive
jp	1	4		inactive
Dcp-1	1	2		inactive
CG1418	1	6		inactive
CG1418	2	9		inactive
how	1	6		inactive
CG8910	1	9		inactive
CG8910	2	7		inactive
CG13243	1	5		inactive
Tdc2	1	6		inactive
Tdc2	2	5		inactive
Elp5	1	4		inactive
CG14015	1	5		inactive
CG14015	2	9		inactive
CR31427	1	8		inactive
CR31427	2	11		inactive
CG7394	1	3		inactive
Kdm4A	1	7		inactive
Kdm4A	2	7		inactive
dpr9	1	6		inactive
dpr9	2	10		inactive
dpr9	3	5		inactive
dpr9	4	8		inactive
CG7029	1	12		inactive
CG7029	2	9		inactive
CG7069	1	9		inactive
C901	1	14		inactive
C901	2	4		inactive
cGlr2	1	3		inactive
Psf1	1	4	11	inactive
Psf1	2	4		inactive
Nup358	1	11		inactive
Nup358	2	4		inactive
RN-tre	1	5		inactive
RN-tre	2	3		inactive
CG6066	1	5		inactive
CG6066	2	9		inactive
CG6066	3	1		inactive
RIOK2	1	13		inactive
boi	1	3		inactive
boi	2	7		inactive
boi	3	5		inactive
Grx1t	1	6		inactive
Grx1t	2	1		inactive
RacGAP84C	1	4		inactive
bond	1	5		inactive
bond	2	11		inactive
hubl	1	4		inactive
Tbc1d8-9	1	3		inactive
cGlr1	1	3		inactive
Traf-like	1	8		inactive
Cyp6d2	1	8	9	inactive
Cyp6d2	2	9		inactive
CG8728	1	8		inactive
meng	1	13		inactive
meng	2	8		inactive
Gr63a	1	12		inactive
Arp8	1	5		inactive
Arp8	2	4		inactive
CG1607	1	7		inactive
CG1607	2	9		inactive
Drep3	1	8		inactive
Drep3	2	11		inactive
CG14757	1	6		inactive
CG14757	2	10		inactive
mEFTs	1	7		inactive
mEFTs	2	6		inactive
MFS9	1	4		inactive
